Assay results published in patent US20100172991A1, “Extended Release Formulation and Methods of Treating Adrenergic Dysregulation” (priority 2007, published 2010).

Test system: systolic and diastolic blood pressure
Details: sigmoidal Emax model, Day 25 exposure
Protocol: Mean baseline ABPM data for the three treatment groups were compared with mean data obtained on Day 26 (last day of treatment) and on Days 27 and 28. A more detailed PK/PD analysis was conducted by using the individual patient ABPM data to compare the blood pressure profile at Baseline and on Day 26 of treatment. The daytime (0- to 12-hour) intervals were used in the analysis, since pharmacokinetic data were collected on Day 25, over the daytime 12-hour dosing interval at steady state. In order to investigate the maintenance of effect at the tail end of the inter-dosing interval, differences between the SBP, DBP, and HR values at Baseline and the last two hours in the inter-dosing interval (Hours 11 and 12) on Day 26 were calculated for each patient. Paired t-tests were performed to test the significance of these differences between Baseline and the last two measuring times. The approach taken to quantify the effects of clonidine on blood pressure was to calculate the difference between the areas under the BP vs. time curves (AUCBP) at Baseline and on Day 26. These values were used to relate the pharmacodynamic effect to dose, as well as to conduct the PK/PD analyses.
Pharmacokinetic-pharmacodynamic modeling was conducted using the blood pressure response data and the Cmax, Cmin and AUCτ values at Day 25 of dosing. […] The data in Table 8 summarize the PK/PD parameters from the sigmoidal Emax model.

Clc1cccc(Cl)c1NC1=NCCN1 [clonidine, 2,6-dichloro-N-2-imidazolidinylidene benzeneamine]
Shape Factor (γ), Diastolic BP vs AUCτ: 7.42 | Shape Factor (γ), Diastolic BP vs Cmax: 8.29 | Shape Factor (γ), Diastolic BP vs Cmin: 7.31 | Shape Factor (γ), Systolic BP vs AUCτ: 6.26 | Shape Factor (γ), Systolic BP vs Cmax: 6.39 | Shape Factor (γ), Systolic BP vs Cmin: 5.56
